Data taken from patent US11198869B2, “Angelman syndrome antisense treatment” (The Texas A&M University System, priority 2017, dated 2021).
Some of these results come from one statement about several compounds together.

System: UBE3A
Assay: UBE3A steady state RNA (qRT-PCR) in GABAergic iPSC-derived neurons
Format: cell-based
Settings: human iPSC-derived neurons
Experimental: Human-specific ASOs were then designed to target this region, which included four ASOs targeting non-polymorphic regions in human and regions conserved (100%) with macaque (Rhesus and Cynomolgus) (Table 7 and FIG. 3A). Human induced pluripotent stem cell (iPSC) neural precursor cells were differentiated into GABAergic neurons for 14 DIV and then treated with a control ASO [ASO-C (10 μM, n=3)], Topotecan [Topo (1 μM, n=2)], and six ASOs targeting UBE3A-AS [ASO-1, ASO-2, ASO-3, ASO-4, ASO-5, and ASO-6 (10 μM, n=3)]. Additionally, an ASO targeting an intronic region downstream of SNORD109B was included (ASO-7). […]
The potency of ASO-4 was further examined in iPSC-derived neurons at a later time point in differentiation. GABAergic iPSC-derived neurons were treated at 59 DIV with a control ASO [ASO-C, 10 μM (n=3)] and ASO-4 [1 uM, 5 μM, and 10 μM (n=3)], and the steady state RNA levels of UBE3A-AS and UBE3A were measured as described above (FIG. 4G). […]
The steady state RNA levels of target transcripts were measured using TaqMan quantitative reverse-transcription PCR (qRT-PCR) assays. […] Cycling conditions were 2 minutes at 50° C., 10 minutes at 95° C., and 40 cycles of 15 seconds at 95° C. and 1 minute at 60° C., with readings taken at the 60° C. step of every cycle. […]

C^O*U^O*G^O*G^O*t*g*t*c*a*a*c*a*a*g*C^O*C^O*A^O*A^O [ASO-6.1]
concentrations necessary to increase UBE3A RNA levels: ≥ 100 nM

U^O*A^O*G^O*A^O*A^O*t*g*g*c*a*c*a*t*c*t*C^O*U^O*U^O*G^O*G^O [ASO-4]
concentrations necessary to increase UBE3A RNA levels: ≥ 100 nM
